Laboratory results: PubChem BioAssay AID602196 (INSERM, 2012)

- Test: 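Modifiers of cisplatin sensitivity in A549 cells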
- System: human A549 lung cancer cells
- Knock-down reagent: siRNA pair against human genes
- Time to read-out: 48 h transfection before cisplatin; time from cisplatin to read-out not stated
- Treatment: cisplatin at a dose killing half of control-siRNA cells; exact dose and duration not given
- Measurement: 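Cisplatin cell death as a shift from the 50% death seen with control siRNA; siRNAs toxic or growth-blocking alone scored 0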
- Direction: two-siRNA summed score (-2 to +2): higher = both siRNAs protect from cisplatin killing; -2 means both sensitise
- Hit rule: 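siRNAs harmful alone (LDH or WST-1) get 0; others get +1 for less and -1 for more cisplatin killing; genes are active when the two siRNAs give the same sign, summing to ±2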
- Meaning of the calls: active = both siRNAs shift cisplatin killing the same way; inactive = no consistent shift, or siRNA harmful alone
The deposit covers about 23,000 reagents; shown is a part drawn at random. In the full data, 455 (2%) were called active. 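Active includes both protection and sensitisation; some change values fall well beyond the stated -50 to +50 range.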 Not all columns of the deposit are shown. Reagent sequences are not shown. Not stated in the record: the amount of reagent.

gene	two-siRNA summed score (-2 to +2)	call
BMPR1B (GeneID 658)	2	active
FLI1 (GeneID 2313)	-1	inactive
PLAGL1 (GeneID 5325)	0	inactive
FHOD3 (GeneID 80206)	0	inactive
RSRC2 (GeneID 65117)	0	inactive
ELAVL2 (GeneID 1993)	-1	inactive
LOC391824	0	inactive
DOCK9 (GeneID 23348)	0	inactive
RPS6KA1 (GeneID 6195)	0	inactive
LOC390859	0	inactive
FBXL6 (GeneID 26233)	1	inactive
GABBR2 (GeneID 9568)	0	inactive
LAMA2 (GeneID 3908)	0	inactive
CLPB (GeneID 81570)	0	inactive
RDH12 (GeneID 145226)	1	inactive
KLHL30 (GeneID 377007)	0	inactive
SGIP1 (GeneID 84251)	1	inactive
WASH2P (GeneID 375260)	0	inactive
LOC442370	1	inactive
MIMS2 (GeneID 116151)	0	inactive
ARFGAP2 (GeneID 84364)	0	inactive
ZFP69 (GeneID 339559)	1	inactive
RAB43 (GeneID 339122)	1	inactive
SLC22A12 (GeneID 116085)	-1	inactive
BAIAP2 (GeneID 10458)	1	inactive
USF2 (GeneID 7392)	1	inactive
MROH9 (GeneID 80133)	0	inactive
ELK1 (GeneID 2002)	0	inactive
GDNF (GeneID 2668)	0	inactive
TFAM (GeneID 7019)	0	inactive
NSG2 (GeneID 51617)	0	inactive
GPR26 (GeneID 2849)	1	inactive
BCL2L1 (GeneID 598)	-1	inactive
UBAC2 (GeneID 337867)	-1	inactive
LINC00174 (GeneID 285908)	0	inactive
SNRNP35 (GeneID 11066)	0	inactive
HP (GeneID 3240)	-1	inactive
SPIRE1 (GeneID 56907)	0	inactive
RCAN3 (GeneID 11123)	0	inactive
LOC440269	1	inactive
MS4A8 (GeneID 83661)	0	inactive
LOC343705	0	inactive
RIPK1 (GeneID 8737)	0	inactive
FLJ38508	2	active
LOC441969	1	inactive
COMMD3 (GeneID 23412)	1	inactive
RNF145 (GeneID 153830)	1	inactive
LOC388459	1	inactive
FAM169BP (GeneID 283777)	0	inactive
CCDC140 (GeneID 151278)	0	inactive
KIRREL3 (GeneID 84623)	0	inactive
CDK4 (GeneID 1019)	0	inactive
LOC200159	-1	inactive
TECRL (GeneID 253017)	0	inactive
RPGR (GeneID 6103)	0	inactive
LOC388010	0	inactive
KATNBL1 (GeneID 79768)	0	inactive

Records listed so far with an active call, once more:
gene	two-siRNA summed score (-2 to +2)	call
BMPR1B (GeneID 658)	2	active
FLJ38508	2	active
